Each structure is given as a SMILES string.

We go through eleven compounds from patent publication US8968997B2, “Benzoxazole-based fluorescent metal ion indicators” (Life Technologies Corporation, priority 2008, dated 2015).

A short description of the data set: Spectrofluorimetry studies: excitation and emission spectra and ratiometric response to metal ion binding. The format is physicochemical. The settings on record: type of fluorescence response to metal ion (Ca^2+) binding. How it is done: The excitation and emission spectra of solutions of various ion indicators (concentration 1-2 μM) were recorded in 30 mM MOPS and 100 mM KCl buffers containing 0 to 200 nM free calcium ion. The binding constant values were calculated based on 8-10 data points taken in buffers covering the concentration range appropriate for the Kd value. Spectral curves for derivatives of Compound 7 (with different R substitutents) were recorded using a standard spectrofluorimeter.
FIGS. 1-3 show excitation and emission spectra for several of the tested compounds. […]
On to `COc1cc(N(C)C)ccc1-c1nc2cc(OCCOc3cc(C)ccc3N(CC(=O)O)CC(=O)O)c(N(CC(=O)O)CC(=O)O)cc2o1` [Compound 7f], for which the “Ratiometric Response” value is given as “emission”. In the case of `Cc1ccc(N(CC(=O)O)CC(=O)O)c(OCCOc2cc3nc(-c4ccc(N(C)C)cc4O)oc3cc2N(CC(=O)O)CC(=O)O)c1` [Compound 7g] it was “emission”; in that of `Cc1ccc(N(CC(=O)O)CC(=O)O)c(OCCOc2cc3nc(-c4cc5c6c(c4)CCCN6CCC5)oc3cc2N(CC(=O)O)CC(=O)O)c1` [Compound 7h], “emission”; in that of `Cc1ccc(N(CC(=O)O)CC(=O)O)c(OCCOc2cc3nc(-c4nc5ccccc5s4)oc3cc2N(CC(=O)O)CC(=O)O)c1` [Compound 7i], “excitation”. In the case of `Cc1ccc(N(CC(=O)O)CC(=O)O)c(OCCOc2cc3nc(-c4cccc(=O)[nH]4)oc3cc2N(CC(=O)O)CC(=O)O)c1` [Compound 7j] it was “excitation”. As to `Cc1ccc(N(CC(=O)O)CC(=O)O)c(OCCOc2cc3nc(-c4cc[n+]([O-])cc4)oc3cc2N(CC(=O)O)CC(=O)O)c1` [Compound 7k], the “Ratiometric Response” value is on record as “excitation-ratiometric response”. Regarding `Cc1ccc(N(CC(=O)O)CC(=O)O)c(OCCOc2cc3nc(-c4ccc5nonc5c4)oc3cc2N(CC(=O)O)CC(=O)O)c1` [Compound 7l], the “Ratiometric Response” value is listed as “excitaton”. Turning to `Cc1ccc(N(CC(=O)O)CC(=O)O)c(OCCOc2cc3nc(/C=C/c4ccc(N(C)C)c5ccccc45)oc3cc2N(CC(=O)O)CC(=O)O)c1` [Compound 7p], the “Ratiometric Response” value is reported as “non-”. As to `Cc1ccc(N(CC(=O)O)CC(=O)O)c(OCCOc2cc3nc(/C=C/c4cc5c6c(c4)CCCN6CCC5)oc3cc2N(CC(=O)O)CC(=O)O)c1` [Compound 7q], the “Ratiometric Response” value is reported as “non-”. On to `Cc1ccc(N(CC(=O)O)CC(=O)O)c(OCCOc2cc3nc(-c4ccc5cc(N(C)C)ccc5c4)oc3cc2N(CC(=O)O)CC(=O)O)c1` [Compound 7r], for which the “Ratiometric Response” value is on record as “non-”.

`Cc1ccc(N(CC(=O)O)CC(=O)O)c(OCCOc2cc3nc(-c4cc5cc6c7c(c5oc4=O)CCCN7CCC6)oc3cc2N(CC(=O)O)CC(=O)O)c1` [Compound 7t]: the “Ratiometric Response” value is “non-ratiometric response and non-”.
